Reference: publication PMC11240526
No constants are given. Whether binding was seen depends on the method and setting. In cells and extracts the contact can be indirect. Some binding calls cover weakened binding; strength is not graded here. Values belong to the substance of their own block, whether it stands above or below them.

Amino acid sequences for entries named in this document (tags omitted). Residues count along the entry.
UniProt P40259, residues 29-229: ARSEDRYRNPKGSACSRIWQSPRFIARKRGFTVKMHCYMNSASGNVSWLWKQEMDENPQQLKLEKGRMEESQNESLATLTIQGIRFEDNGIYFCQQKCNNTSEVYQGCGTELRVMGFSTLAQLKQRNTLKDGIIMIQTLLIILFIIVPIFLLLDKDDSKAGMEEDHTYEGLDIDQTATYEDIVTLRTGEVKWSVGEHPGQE
UniProt P11912, residues 33-226: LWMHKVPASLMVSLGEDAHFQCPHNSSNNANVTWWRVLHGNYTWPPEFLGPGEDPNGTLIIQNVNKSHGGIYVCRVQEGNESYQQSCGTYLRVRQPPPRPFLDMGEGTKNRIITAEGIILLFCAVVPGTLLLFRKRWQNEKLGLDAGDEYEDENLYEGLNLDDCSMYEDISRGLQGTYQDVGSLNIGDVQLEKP

Legend:
[1] = molecular target: CD79b (human (endogenous in Raji)) (UniProt P40259); assay: co-IP; antibody to the bait (anti-CD79a, anti-CD79b or anti-IgM) with Protein G agarose beads; Raji membrane fraction solubilised in 1% Triton X-100 lysis buffer in PBS; overnight at 4 °C; bead eluate read by Western blot, band intensities normalised to protein load
[2] = molecular target: CD79a (human (endogenous in Raji)) (UniProt P11912); assay: co-IP; anti-CD79a with Protein G agarose beads; Raji membrane fraction solubilised in 0.5% DOC buffer (10 mM Tris pH 7.5); bead eluate read by Western blot
[3] = molecular target: CD79a of the OSU-CLL cell line (human (endogenous in OSU-CLL)) (UniProt P11912); assay: co-IP; anti-CD79a with Protein G agarose beads; OSU-CLL cell line membrane fraction; Western blot (Figure S3)

- binding [1]: binds weakly
Substance: CD79a (from UniProt P11912 33-226)

- binding [2]: binds
Substance: CD79b (from UniProt P40259 29-229)

- binding [3]: binds
Substance: CD79b of the OSU-CLL cell line (from UniProt P40259 29-229)
